Data: the supplement of paper PMC8007513
± gives the standard deviation of the averaged measurements. The list shows a part of the results. Many values rest on one well or one pass, so single values are uncertain.

Each compound was assayed on Saccharomyces cerevisiae BY4743 (assay: growth (OD600) with compound + IPBC relative to untreated control; higher = less growth inhibition). Settings: compound concentration: 133 uM; IPBC concentration: 0.5 ug/ml; 20 h.
Method: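 NMCCC compounds (133 uM) combined with IPBC (0.5 ug/ml) against Saccharomyces cerevisiae BY4743 in YPD, 96-well plates. Growth was read as OD600 at 20 h and expressed as % of the untreated control. Single pass.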
Work on CC(C)OCCN1CCc2cc(S(=O)(=O)N(C)C)ccc21 + CCCCNC(=O)OCC#CI [3-iodo-2-propynyl butylcarbamate (IPBC)] yielded a growth of 105%.
For Cc1c(SCCO)c(O)nc2cc3c(cc12)OCO3 + CCCCNC(=O)OCC#CI [3-iodo-2-propynyl butylcarbamate (IPBC)], the growth was 89.9 ± 6.5%.
With CCCNC(=O)CSc1nnc(-c2ccc(NC(C)=O)cc2)n1-c1ccccc1 + CCCCNC(=O)OCC#CI [3-iodo-2-propynyl butylcarbamate (IPBC)] the growth was 80.3%.
With CC1=C(N[S](=O)(=O)C/2=C(C)/N=C\3S\C=C/N3C2=O)C(=CC=C1)C + CCCCNC(=O)OCC#CI [3-iodo-2-propynyl butylcarbamate (IPBC)] the growth was 104%.
Cc1nnc(SC(C)C(=O)c2c[nH]c3ccccc23)s1 (centres undefined) + CCCCNC(=O)OCC#CI [3-iodo-2-propynyl butylcarbamate (IPBC)] gave a growth of 88.5%.
With COC1=CC=CC=C1C(=O)N\C2=C\N=C3\S\C=C/N3C2=O + CCCCNC(=O)OCC#CI [3-iodo-2-propynyl butylcarbamate (IPBC)] the growth was 97.6%.
COC(=O)\C1=C(/N)OC2=CC(=NC(=C2C1C3=CC=CC=C3)O)C (centres undefined) + CCCCNC(=O)OCC#CI [3-iodo-2-propynyl butylcarbamate (IPBC)] was tested, and the growth was 86.5%.
CC(C)[C@H](NS(=O)(=O)c1ccc2c(c1)OCCO2)C(=O)NC1CCCCCC1 + CCCCNC(=O)OCC#CI [3-iodo-2-propynyl butylcarbamate (IPBC)] showed a growth of 106%.
For C[N]1N=CC(=C1C)N2\N=N/C3=C([N](C)N=C3)C2=O + CCCCNC(=O)OCC#CI [3-iodo-2-propynyl butylcarbamate (IPBC)], the growth was 108%.
For Cc1sc(NC(=O)CSc2ncnc3ccccc23)c(C#N)c1C + CCCCNC(=O)OCC#CI [3-iodo-2-propynyl butylcarbamate (IPBC)], the growth was 93.5%.
CC1=CC=C(CNC(=O)CC\C2=N\[S](=O)(=O)C3=CC=CC=C3N2)O1 + CCCCNC(=O)OCC#CI [3-iodo-2-propynyl butylcarbamate (IPBC)] gave a growth of 109%.
Work on FC(F)(F)C/1=C/N(CC2=CC=CC(=C2)[S](=O)(=O)N3CCOCC3)C(=O)/C(=C1)Cl + CCCCNC(=O)OCC#CI [3-iodo-2-propynyl butylcarbamate (IPBC)] yielded a growth of 98.2%.
Cc1ccc(-c2cc(NC(=O)CNC(C)c3ccc(F)cc3F)on2)cc1 (centres undefined) + CCCCNC(=O)OCC#CI [3-iodo-2-propynyl butylcarbamate (IPBC)] showed a growth of 83.1%.
For CCCCS(=O)(=O)Nc1cnn(Cc2ccc(F)cc2)c1 + CCCCNC(=O)OCC#CI [3-iodo-2-propynyl butylcarbamate (IPBC)], the growth was 103%.
Compound CCOC(=O)C(Cc1ccccc1)NS(=O)(=O)c1ccc(NC(C)=O)cc1 (centres undefined) + CCCCNC(=O)OCC#CI [3-iodo-2-propynyl butylcarbamate (IPBC)] has a growth of 90.4%.
CCCCN1\C(=N/[S](=O)(=O)C2=CC=CC=C12)SCC(=O)C3=CC=CC=C3 + CCCCNC(=O)OCC#CI [3-iodo-2-propynyl butylcarbamate (IPBC)] showed a growth of 89.2%.
CC(=O)N1c2ccc(S(=O)(=O)NC(C(=O)Nc3ccccn3)C(C)C)cc2CC1C (centres undefined) + CCCCNC(=O)OCC#CI [3-iodo-2-propynyl butylcarbamate (IPBC)] was tested, and the growth was 104%.
In the case of CCCn1c(C)c(C)c(-c2nc3ccccc3[nH]2)c1NC(=O)C(C)C + CCCCNC(=O)OCC#CI [3-iodo-2-propynyl butylcarbamate (IPBC)], the growth is reported as 87%.
Compound COC(=O)c1ccc(N2CCCC2)c(NC(=O)N(C)Cc2ccc(OC)cc2OC)c1 + CCCCNC(=O)OCC#CI [3-iodo-2-propynyl butylcarbamate (IPBC)] has a growth of 100%.
Work on CCOC(=O)c1c(NC(=O)c2ccccc2)oc2cccnc12 + CCCCNC(=O)OCC#CI [3-iodo-2-propynyl butylcarbamate (IPBC)] yielded a growth of 77.1%.
Cc1ccc2cc(C(=O)NCCN3CCS(=O)(=O)CC3)c(C)nc2c1 + CCCCNC(=O)OCC#CI [3-iodo-2-propynyl butylcarbamate (IPBC)] showed a growth of 106%.
Compound COC(=O)c1c(C)[nH]c(C(=O)Cn2nnc(-c3ccc(C(C)C)cc3)n2)c1C + CCCCNC(=O)OCC#CI [3-iodo-2-propynyl butylcarbamate (IPBC)] has a growth of 114%.
For CCOC1=CC(=CC=C1O)C\2\C(=C(\N)O\C(=C2C#N)C(C)(C)C)C#N (centres undefined) + CCCCNC(=O)OCC#CI [3-iodo-2-propynyl butylcarbamate (IPBC)], the growth was 86.3%.
Work on COCCN1\C=C(NC(=O)C2=CC3=C(CCC(C3)C(C)(C)C)S2)/C=C\C1=O (centres undefined) + CCCCNC(=O)OCC#CI [3-iodo-2-propynyl butylcarbamate (IPBC)] yielded a growth of 113%.
CCn1cnnc1CNC(=O)NCc1ccc(NC(=O)C(F)(F)F)cc1 + CCCCNC(=O)OCC#CI [3-iodo-2-propynyl butylcarbamate (IPBC)] gave a growth of 102%.
Cc1ccc(-n2cnnn2)cc1NCC(=O)NC1CCCCCC1 + CCCCNC(=O)OCC#CI [3-iodo-2-propynyl butylcarbamate (IPBC)] gave a growth of 88.1%.
CCOc1cccc(CC(=O)Nc2nc3ccc(Cl)cc3o2)c1OCC + CCCCNC(=O)OCC#CI [3-iodo-2-propynyl butylcarbamate (IPBC)] was tested, and the growth was 97.9%.
CCN(CC(=O)Nc1ccccc1C(F)(F)F)C(=O)CSCC(=O)Nc1cc(C)on1 + CCCCNC(=O)OCC#CI [3-iodo-2-propynyl butylcarbamate (IPBC)] showed a growth of 93.2%.
Compound NC(=O)c1cc(Cl)ccc1OCC(=O)Nc1ccccc1Cc1ccccc1 + CCCCNC(=O)OCC#CI [3-iodo-2-propynyl butylcarbamate (IPBC)] has a growth of 99%.
Work on CC(NC(=O)CN1\N=N/C2=CC=CC=C2C1=O)C3=CC=CC(=C3)Cl (centres undefined) + CCCCNC(=O)OCC#CI [3-iodo-2-propynyl butylcarbamate (IPBC)] yielded a growth of 107%.
CN(C1=CC=CC=C1)C(=O)\C2=C\C(=N/[S](=O)(=O)N2C)C3=CC=C(C)C=C3 + CCCCNC(=O)OCC#CI [3-iodo-2-propynyl butylcarbamate (IPBC)] showed a growth of 83.3%.
Cn1ccc(S(=O)(=O)N2CCC(C(=O)Nc3ccccc3OCC(F)(F)F)CC2)c1 + CCCCNC(=O)OCC#CI [3-iodo-2-propynyl butylcarbamate (IPBC)] gave a growth of 95.4%.
Work on O=C(NC1(C(F)(F)F)NC(=O)N(Cc2ccncc2)C1=O)c1ccccc1 (centres undefined) + CCCCNC(=O)OCC#CI [3-iodo-2-propynyl butylcarbamate (IPBC)] yielded a growth of 102%.
Compound Cc1cccc(NC(=O)CCSc2nc3nc(C)ccc3o2)c1 + CCCCNC(=O)OCC#CI [3-iodo-2-propynyl butylcarbamate (IPBC)] has a growth of 98.5%.
CCC1=CC=C(C=C1)C(CN[S](=O)(=O)\C2=C\C3=CC=CC=C3CC2)N(C)C (centres undefined) + CCCCNC(=O)OCC#CI [3-iodo-2-propynyl butylcarbamate (IPBC)] showed a growth of 101%.
CC(C)C(CNS(=O)(=O)c1ccc2c(c1)CCCC2)N1CCOCC1 (centres undefined) + CCCCNC(=O)OCC#CI [3-iodo-2-propynyl butylcarbamate (IPBC)] was tested, and the growth was 109%.
CC(C)(C)Nc1nnc(SCc2nc(Cc3ccccc3)no2)s1 + CCCCNC(=O)OCC#CI [3-iodo-2-propynyl butylcarbamate (IPBC)] showed a growth of 107%.
With O=C(CC1=CC=CS1)N(C\2C[S](=O)(=O)\C=C2)C3=CC=CC=C3 (centres undefined) + CCCCNC(=O)OCC#CI [3-iodo-2-propynyl butylcarbamate (IPBC)] the growth was 101%.
In the case of COc1cc(NC(=O)c2cccnc2Sc2ccccc2)cc(OC)c1 + CCCCNC(=O)OCC#CI [3-iodo-2-propynyl butylcarbamate (IPBC)], the growth is reported as 99.1%.
